From PubChem BioAssay AID1347076 (National Center for Advancing Translational Sciences (NCATS), 2019)
About 13,000 (3.2%) of roughly 400,000 compounds were called active. The inconclusive results got no clear call from the source; some entries with a clear call stand among them for comparison. Calls come from the whole dose curve; as a rule, active = well fitted cell-killing curve with a large enough effect; inconclusive = small, poorly fitted or top-dose-only effect, or effect the other way; inactive = flat fitted curve, though single readings scatter. Where the call is inconclusive, the potency comes from a doubtful curve fit.

Test: qHTS assay for MDR1-selective chemotherapeutics: Primary screen using the drug-selected MDR subline cells KB-V1; note: nearly all actives have a fitted effect of over 60% in size
Conditions: KB-V1 MDR cells viability, CellTiter-Glo, 72 h; activity change, negative = cytotoxicity: at 46.1 µM (top of the series)
In short: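 KB-V1, DMEM (no phenol red) + 10% FBS; cpd pin-transferred, titration series; 72 h, 37 degrees C; CellTiter-Glo, luminescence. Data normalized, curve-fit.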
% is set by controls: 0 for no effect and ±100 for the full control effect; potency is the fitted concentration of half-maximal effect.

Compound	Potency	activity change, negative = cytotoxicity
COc1ccc(OC)c(N2C(=O)/C(=C/c3ccco3)C(=O)NC2=S)c1	inactive	–
FC(F)(F)c1cccc(-n2nnnc2C2(N3CCOCC3)CCCCC2)c1	inconclusive: 11.6 µM [cytotoxic, partial curve]	–
CN(C(=O)Oc1cccc2ccccc12)C1C=CCC1 (configuration not stated)	inactive	–
C[C@H]1O[C@@H](O[C@H]2[C@@H](O)C[C@@H](O[C@H]3[C@@H](O)C[C@H](O[C@H]4CC[C@@]5(C)[C@H](CC[C@@H]6[C@@H]5CC[C@]5(C)[C@@H](C7=CC(=O)OC7)CC[C@]65O)C4)O[C@@H]3C)O[C@@H]2C)C[C@H](O)[C@@H]1O	inconclusive: 2.59 µM [cytotoxic, partial curve, poor fit]	–
O=C1OC(c2ccc(Br)cc2)=N/C1=C\N1CC2CC(C1)c1cccc(=O)n1C2 (configuration not stated)	inconclusive: 16.4 µM [cytotoxic, partial curve, poor fit]	–
CC(C)c1ccc(-n2c(O)c(/C=N/NC(=O)c3ccccc3O)c(=O)[nH]c2=S)cc1	inconclusive: 1.3 µM [rising, full curve, poor fit]	–
Cn1cc(C(=O)OCC(=O)NC2(C#N)CCCC2)c2ccccc21	inactive	–
O=[N+]([O-])c1ccc(C2C3C(c4ccccc4)=NC4(CCCC4)N32)cc1 (configuration not stated)	inconclusive: 13 µM [cytotoxic, partial curve]	–
CC(C)N1C(=O)/C(=C/C=C/c2ccco2)C(=O)N(Cc2ccco2)C1=O	inconclusive: 29.1 µM [cytotoxic, single point]	–
COc1cc(O)cc2c1cc([N+](=O)[O-])c1c(C(=O)O)cc3c(c12)OCO3	inactive	–
CCOC(=O)[C@]12Cc3cc(OC)ccc3[C@H]1N(C1CCCCC1)C(=O)c1ccccc12	active: 2.31 µM	–
O=Cc1cn(Cc2ccccc2[N+](=O)[O-])c2ccccc12	inconclusive: 25.9 µM [cytotoxic, single point]	–
CC(N)C(=O)NC1C2C(=C(O)CC(O)C2O)C(=O)OC1(C)C(Cl)Cl (configuration not stated)	active: 18.4 µM	–
Clc1ccc(C2NCCc3[nH]cnc32)cc1 (configuration not stated)	inactive	–
Cn1c(O)c(C=NCCN2CCOCC2)c(=O)[nH]c1=S	inconclusive: 11.6 µM [rising, partial curve]	–
O=C(COc1ccccc1)N1CCN(C/C=C/c2ccccc2)CC1	active: 16.4 µM	–
CCOC(=O)c1cccc(C2=C(CNC(=O)c3nccs3)[C@H]3CC[C@@H](C2)N3Cc2ccccc2)c1	inconclusive: 5.17 µM [cytotoxic, partial curve]	–
c1ccc(-c2ccc(CN3Cc4ccccc4-n4nncc4C3)cc2)cc1	inconclusive: 18.4 µM [cytotoxic, single point]	–
O=C1C(=O)c2cccc3cccc1c23	inconclusive: 20.6 µM [cytotoxic, single point]	–
O=C(Cc1cccc(C(F)(F)F)c1)N1CCN(CC(=O)N2CCCC2)CC1	inactive	–
Cc1nonc1OCCNCCNc1ccc([N+](=O)[O-])c2cccnc12	inconclusive: 20.6 µM [cytotoxic, single point]	–
O=C1NC(=O)C(=Cc2ccc(OCCOc3ccc([N+](=O)[O-])cc3)cc2)C(=O)N1	inconclusive: 29.1 µM [rising, single point]	–
COC(=O)C1=C(c2cccc(OCc3ccccc3)c2)C[C@@H]2CC[C@H]1N2C(=O)NCc1ccc(C(F)(F)F)cc1	inconclusive: 18.4 µM [cytotoxic, single point]	–

Compound	Potency	activity change, negative = cytotoxicity
COc1ccc(CCNC(=O)c2c(N)n(CCN3CCOCC3)c3nc4ccccc4nc23)cc1OC	inconclusive: 20.6 µM [cytotoxic, single point]	–
CCN(c1ccc(C(O)(C(=O)OC)C(F)(F)F)cc1)S(=O)(=O)c1ccc(C)cc1 (configuration not stated)	inconclusive: 20.6 µM [cytotoxic, single point]	–
CN1C(=O)C[N+]([O-])=C(c2ccccc2)c2cc(Cl)ccc21	inactive	–
Fc1ccc(C(OCCN2CCCC2)c2ccc(F)cc2)cc1	inconclusive: 14.6 µM [cytotoxic, partial curve]	–
CC(=O)[C@@]1(O)CCC2C3CC=C4C[C@@H](O)CC[C@]4(C)C3CC[C@@]21C (some centres not stated)	inactive	–
Cc1ccc(-n2c(=O)[nH]c3ccc(Br)cc3c2=O)cc1	–	inconclusive: 37%
CCOC(=O)C(C)(CC)NC(=O)CSP(=S)(OCC)OCC (configuration not stated)	inconclusive: 16.4 µM [cytotoxic, partial curve]	–
CC(C)(C)n1nnnc1C(c1cccc2ccccc12)N1CCC2(CC1)C(=O)NCN2c1ccccc1 (configuration not stated)	inconclusive: 29.1 µM [cytotoxic, single point]	–
CCN1CCN(S(=O)(=O)c2ccc(Cl)c(C(=O)Nc3ccc(C(=O)N(CC)CC)cc3)c2)CC1	inconclusive: 29.1 µM [rising, single point]	–
CCCCNC(=O)Nc1ccc(C(O)(C(=O)OC)C(F)(F)F)cc1 (configuration not stated)	inactive	–
CCCCn1nnnc1C(C1CC1)N1CCC(n2c(=O)[nH]c3ccccc32)CC1 (configuration not stated)	inconclusive: 29.1 µM [cytotoxic, single point]	–
N#CC(C#N)=C(C#N)c1ccc(Nc2ccccc2)cc1	inconclusive: 29.1 µM [cytotoxic, single point]	–
CCN(CC)c1ccc(C=C2C(=O)N(C)C(=S)N(C)C2=O)o1	inconclusive: 9.2 µM [cytotoxic, partial curve]	–
COc1cc(C(=O)N2Cc3ccc(Br)cc3-n3nncc3C2)cc(OC)c1OC	inactive	–
O=[N+]([O-])c1ccc(C[n+]2c(-c3ccccc3)cc(-c3ccccc3)cc2-c2ccccc2)cc1	inactive	–
Cc1ccc(C2C(=O)NC(=O)NC2=O)cc1	inactive	–
Clc1ccc(C(c2ccc(Cl)cc2)n2cc[n+](CC(OCc3ccc(Cl)cc3Cl)c3ccc(Cl)cc3Cl)c2)cc1 (configuration not stated)	inconclusive: 25.9 µM [cytotoxic, single point]	–
COC(=O)C1=C(c2cccc(OCc3ccccc3)c2)C[C@@H]2CC[C@H]1N2C(=O)NNCc1ccccc1	inconclusive: 29.1 µM [cytotoxic, partial curve, poor fit]	–
O=P(O)(Oc1ccccc1)c1ccccc1	–	inconclusive: -67.8%
COc1cc(CNCCc2c[nH]c3ccccc23)cc(OC)c1OC	inconclusive: 2.91 µM [rising, partial curve, poor fit]	–
CN1CC[C@@]2(C)c3cc(O)ccc3N(C)C2O1 (some centres not stated)	inactive	–
O=c1[nH]c2ccccc2n1C1CCN(C(c2ccccc2OC(F)(F)F)c2nnnn2-c2ccc3c(c2)OCCO3)CC1 (configuration not stated)	inconclusive: 23.1 µM [cytotoxic, single point]	–
CCOC(=O)c1c(C)[nH]c(C(=O)C(Cc2ccccc2)N(C)C)c1C (configuration not stated)	inconclusive: 9.2 µM [cytotoxic, partial curve, poor fit]	–

Compound	Potency	activity change, negative = cytotoxicity
Cc1c(P(=S)(c2ccccc2)c2ccccc2)[n+]2ccccc2n1C	inconclusive: 25.9 µM [rising, single point]	–
O=[N+]([O-])c1ccc(N2CCCNCC2)c2ncccc12	–	inconclusive: -16.2%
COCCNC(=O)c1c(NC(=O)c2ccc(Br)o2)n(Cc2ccccc2)c2nc3ccccc3nc12	active: 11.6 µM	–
CC(=O)O[C@H]1CCC2C3CCC4=CC(=O)CCC4=C3C=C[C@@]21C (some centres not stated)	active: 8.2 µM	–
COCCCn1c(N)c(C(=O)OCCOC)c2nc3ccccc3nc21	inactive	–
Cc1ccc2cccc(OC(=O)N3CCCC3)c2n1	inconclusive: 23.1 µM [cytotoxic, partial curve, poor fit]	–
Cc1ccc(CN2CCCC(C(=O)c3sccc3C)C2)o1 (configuration not stated)	inconclusive: 2.31 µM [cytotoxic, partial curve, poor fit]	–
COC(=O)C1=C(c2ccc(F)cc2OCc2ccccc2)C[C@@H]2CC[C@H]1N2C(=O)NC1CCCCC1	inconclusive: 23.1 µM [cytotoxic, single point]	–
COC(=O)C1=C(c2cccc(OCc3ccccc3)c2)C[C@@H]2CC[C@H]1N2C(=O)NCCOc1ccccc1Cl	inconclusive: 18.4 µM [cytotoxic, single point]	–
Cc1cccc(N2C(=O)NC(=O)/C(=C\c3ccc4c(c3)CCCN4Cc3ccccc3)C2=O)c1	inconclusive: 29.1 µM [cytotoxic, single point]	–
c1ccc2c(CNC3CCCCCC3)c[nH]c2c1	inconclusive: 18.4 µM [cytotoxic, single point]	–
OCC[n+]1c2ccccc2nc2ccc(N3CCOCC3)cc21	inactive	–
COC(=O)C1CN(C#N)N(c2ccc(Cl)cc2)C12c1ccccc1-c1ccccc12 (configuration not stated)	active: 11.6 µM	–
C=CCn1c(O)c(C(C)=NCCN2CCCCC2)c(=O)[nH]c1=O	inactive	–
CCOC(=O)C1SC2(C(F)(F)C(F)F)CC1(O)c1c(c(OC)c3occc3c1OC)O2 (configuration not stated)	inconclusive: 13 µM [cytotoxic, partial curve, poor fit]	–
CCCCCn1c(=O)c(C(=O)NCc2ccccc2Cl)c(O)c2ccccc21	inconclusive: 18.4 µM [cytotoxic, single point]	–
O=C(O)Cn1cc(/C=C2\C(=O)NC(=O)N(Cc3ccco3)C2=O)c2ccccc21	–	inconclusive: 47.6%
CCOP(=S)(OCC)Oc1nc(Cl)c(Cl)cc1Cl	inconclusive: 20.6 µM [rising, partial curve, poor fit]	–
O=C(O)C(O)(c1ccccc1)C1CCCC1 (configuration not stated)	inactive	–
O=C1Nc2ccc(Br)cc2C(c2ccc(Cl)cc2)=NC1O (configuration not stated)	inactive	–
CC/C(=N\N1CCCCCC1)c1c(O)n(-c2ccc(C)cc2)c(=O)[nH]c1=O	inconclusive: 11.6 µM [cytotoxic, partial curve]	–

In another format: 3 of the compounds above
Compound | Potency | activity change, negative = cytotoxicity
COCCCn1c(N)c(C(=O)OCCOC)c2nc3ccccc3nc21 | inactive | –
Cc1ccc2cccc(OC(=O)N3CCCC3)c2n1 | inconclusive: 23.1 µM [cytotoxic, partial curve, poor fit] | –
Cc1ccc(CN2CCCC(C(=O)c3sccc3C)C2)o1 (configuration not stated) | inconclusive: 2.31 µM [cytotoxic, partial curve, poor fit] | –

One compound at a time, as listed above. Order of values: Potency	activity change, negative = cytotoxicity
`O=[N+]([O-])c1ccc(N2CCCNCC2)c2ncccc12` is entered as –	inconclusive: -16.2%
`CCOP(=S)(OCC)Oc1nc(Cl)c(Cl)cc1Cl` is entered as inconclusive: 20.6 µM [rising, partial curve, poor fit]	–
